PubChem BioAssay AID602196 | INSERM | 2012
The deposit covers about 23,000 reagents; below is a random part of them. Of all reagents, 455 (2%) were called active. 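Active includes both protection and sensitisation; some change values fall well beyond the stated -50 to +50 range.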 Unmarked entries are inactive. Further read-outs or replicates are left out here. Not given: the amount of reagent.

- Assay: 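Modifiers of cisplatin sensitivity in A549 cells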
- Cell system: human A549 lung cancer cells
- Reagents: siRNA pair against human genes
- Timing: 48 h transfection before cisplatin; time from cisplatin to read-out not stated
- Challenge: cisplatin at a dose killing half of control-siRNA cells; exact dose and duration not given
- Measurement: 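Cisplatin cell death as a shift from the 50% death seen with control siRNA; siRNAs toxic or growth-blocking alone scored 0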
- Reading the numbers: two-siRNA summed score (-2 to +2): higher = both siRNAs protect from cisplatin killing; -2 means both sensitise
- Rule for the call: 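siRNAs harmful alone (LDH or WST-1) get 0; others get +1 for less and -1 for more cisplatin killing; genes are active when the two siRNAs give the same sign, summing to ±2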
- Meaning of the calls: active = both siRNAs shift cisplatin killing the same way; inactive = no consistent shift, or siRNA harmful alone

| Target gene | two-siRNA summed score (-2 to +2) |
| --- | --- |
| ARRDC3 (arrestin domain containing 3) | 0 |
| KLF10 (KLF transcription factor 10) | -1 |
| PGA5 (pepsinogen A5) | 0 |
| SUMO4 (small ubiquitin like modifier 4) | 0 |
| SEMG2 (semenogelin 2) | -1 |
| HYCC1 (hyccin PI4KA lipid kinase complex subunit 1) | 0 |
| GLIPR1 (GLI pathogenesis related 1) | 0 |
| LOC389533 | -1 |
| POLR1C (RNA polymerase I and III subunit C) | -1 |
| ERAP1 (endoplasmic reticulum aminopeptidase 1) | 0 |
| LOC402188 | -1 |
| DYNC2I1 (dynein 2 intermediate chain 1) | 0 |
| SLC25A25 | 0 |
| LOC441503 | 0 |
| TSHR (thyroid stimulating hormone receptor) | 0 |
| MYL7 (myosin light chain 7) | 0 |
| ZNF785 (zinc finger protein 785) | 0 |
| PYCR2 (pyrroline-5-carboxylate reductase 2) | 0 |
| NMT2 (N-myristoyltransferase 2) | -1 |
| LOC400793 | 1 |
| LINC01376 (long independently transcribed non-coding RNA 1376) | 0 |
| OPRM1 (opioid receptor mu 1) | -1 |
| PEMT (phosphatidylethanolamine N-methyltransferase) | 0 |

Sorted by “two-siRNA summed score (-2 to +2)” (ascending): 2 of the entries above
| Target gene | two-siRNA summed score (-2 to +2) |
| --- | --- |
| LOC389533 | -1 |
| POLR1C (RNA polymerase I and III subunit C) | -1 |
